Assay results from US20050106100A1 (priority 2003, published 2005).
Strings that start with PEPTIDE1 are HELM notation: dots part the residues, brackets hold end groups and non-standard residues. *1 amine or outer side, *2 acyl side, *3 side chain or, on linkers, in order; H or OH if unused. [ ]: non-standard residue; d: D form. The star is where a group is joined. X1 = O=C(c1ccc(N/N=C/c2ccccc2S(=O)(=O)O)nc1)*; Hexamethylenediamine = C(CCCN[*:2])CCN[*:1]; hPhe = N[C@@H](CCc1ccccc1)C(=O)O; Orn = NCCC[C@H](N)C(=O)O

Experiment: general procedure: Fmoc solid-phase peptide synthesis; Fmoc-Glu(Ot-Bu)-Wang resin (0.9 mmol/g); 1,6-diaminohexane trityl resin ([…]); HBTU/HOBt/diisopropylethylamine
Settings: HPLC

Substance | final HPLC purity | purity (crude or final not stated)
AC-P-Cit-G˜S(OBn)-LA-Ahxh-Hynic | 100% | 
Ac-DAla-PRG˜Ile-LA-Ahxh-Hynic | 100% | 
Ac-DArg-P-Aib-G˜Hphe-LA-Ahxh-Hynic | 98% | 
Ac-Hpro-Cit-G˜Hphe-TA-Ahxh-Hynic | 100% | 
Ac-Inp-Cit-G˜Hphe-LA-Ahxh-Hynic | 99% | 
Ac-LRY˜Cha-TA-Ahxh-Hynic | 100% | 
Ac-NGlu-PLG˜Hphe-YL-Ahxh-Ac |  | 100%
Ac-NLys-PLG˜Hphe-RLA-Ahxh-Hynic | 100% | 
Ac-NLys-PLG˜LL-Ahxh-Hynic | 100% | 
Ac-Oic-LG˜LL-Ahxh-Ac |  | 100%
Ac-P-Cha-G˜Hphe-Cit-L-Ahxh-Ac |  | 100%
Ac-P-Cha-G˜LL-Ahxh-Ac |  | 100%
Ac-P-Cha-G˜Smc-HA-Ahxh-Hynic | 96% | 
Ac-P-Cit-Abu˜LTA-Ahxh-Hynic | 96% | 
Ac-P-Cit-Aib˜Hphe-LA-Ahxh-Hynic | 99% | 
Ac-P-Cit-Cit˜LTA-Ahxh-Hynic | 93% | 
Ac-P-Cit-G-Hphe-LA-Hynic | 96% | 
Ac-P-Cit-G˜Abu-LA-Ahxh-Hynic | 100% | 
Ac-P-Cit-G˜Aib-LA-Ahxh-Hynic | 99% | 

Substance | final HPLC purity | purity (crude or final not stated)
Ac-P-Cit-G˜Chg-LA-Ahxh-Hynic | 100% | 
Ac-P-Cit-G˜Hphe-Cha-A-Ahxh-Ac |  | 100%
Ac-P-Cit-G˜Hphe-Cit-L-Ahxh-Hynic | 98% | 
Ac-P-Cit-G˜Hphe-L-Ahxh-Hynic | 100% | 
Ac-P-Cit-G˜Hphe-LA-Ahxh-Ac |  | 98%
Ac-P-Cit-G˜Hphe-LA-Ahxh-Hynic | 100% | 
Ac-P-Cit-G˜Hphe-LQ-Hynic | 100% | 
Ac-P-Cit-G˜Hphe-LT-Ahxh-Hynic | 98% | 
Ac-P-Cit-G˜Hphe-OL-Ahxh-Ac |  | 100%
Ac-P-Cit-G˜Igl-LA-Ahxh-Hynic | 98% | 
Ac-P-Cit-G˜Nle-LA-Ahxh-Hynic | 100% | 
Ac-P-Cit-G˜Tle-LA-Ahxh-Hynic | 100% | 
Ac-P-Cit-Hse˜Hphe-SA-Ahxh-Hynic | 100% | 
Ac-P-DArg-R˜LTA-Ahxh-Hynic | 98% | 
Ac-P-DLeu-G˜LL-Ahxh-Hynic | 100% | 
Ac-P-NLeu-G˜LL-Ahxh-Ac |  | 100%
Ac-P-NLys-R˜LTA-Ahxh-Hynic | 99% | 
Ac-P-NMeArg-R˜LTA-Ambh-Hynic | 100% | 
Ac-P-O(Me)2-G˜Hphe-L-Nle-Ahxh-Hynic | 100% | 

Substance | final HPLC purity | purity (crude or final not stated)
Ac-PLG˜Ahp-YL-Ahxh-Ac |  | 100%
Ac-PLG˜Cit-LA-Ahxh-Ac |  | 100%
Ac-PLG˜Hphe-Cit-L-Ahxh-Hynic | 97% | 
Ac-PLG˜L-Cha-Ahxh-Hynic | 99% | 
Ac-PLG˜L-Pya-L-Ahxh-Ac |  | 100%
Ac-PLG˜Pabu-Cit-L-Ahxh-Ac |  | 100%
Ac-POG˜Hphe-L-Nle-Ahxh-Hynic | 100% | 
Ac-POG˜Hphe-Smc-T-Ahxh-Hynic | 100% | 
Ac-PRG˜Hphe-Dab-A-Ahxh-Hynic | 100% | 
Ac-PRR˜Cha-TA-Ambh-Hynic | 100% | 
Ac-Tic-Cit-G˜Hphe-SA-Ahxh-Hynic | 89% | 
H-DArg-P-Cit-G˜cLeu-LA-Ahxh-Hynic | 100% | 
H-NLys-PLG˜LYT-Ahxh-Hynic | 90% | 
H-γ-DGlu-PLG-LYT-Ahxh-Hynic | 92% | 
NLys-NLys-PLG˜Hphe-YL-Ahxh-Hynic | 100% | 
NLys-PLG˜Hphe-YL-Ambh-Hynic | 100% | 
Piv-PLG˜LYT-Ahxh-Hynic | 93.4% | 
Suc-PLG˜LYT-Ahxh-Hynic | 100% | 

Same assay, conditions: conjugation step

Substance | conjugation yield
2-((1E)-2-{[5-(N-{(2S)-2-[(2S)-2-(2-{(2S)-2-[((2S)-1-Acetylpyrrolidin-2-yl)carbonylamino]-5-[(tert-butoxy)carbonylamino]-pentanoylamino}acetylamino)-4-phenylbutanoylamino]-4-methylpentanoylamino}-carbamoyl)(2-pyridyl)]amino}-2-azavinyl)benzenesulfonic Acid | 68.0%
Ac-PLG[hPhe][Orn]LEE-{Hexamethylenediamine-X1} (SMILES CC(=O)N1CCC[C@H]1C(=O)N[C@@H](CC(C)C)C(=O)NCC(=O)N[C@@H](CCc1ccccc1)C(=O)N[C@@H](CCCN)C(=O)N[C@@H](CC(C)C)C(=O)N[C@@H](CCC(=O)O)C(=O)N[C@@H](CCC(=O)O)C(=O)NCCCCCCNC(=O)c1ccc(N/N=C/c2ccccc2S(=O)(=O)O)nc1) | 56.0%

Same assay, conditions: conjugation step, HPLC

Substance | final HPLC purity
2-((1E)-2-{[5-(N-{(2S)-2-[(2S)-2-(2-{(2S)-2-[((2S)-1-Acetylpyrrolidin-2-yl)carbonylamino]-5-[(tert-butoxy)carbonylamino]-pentanoylamino}acetylamino)-4-phenylbutanoylamino]-4-methylpentanoylamino}-carbamoyl)(2-pyridyl)]amino}-2-azavinyl)benzenesulfonic Acid | 100% purity by HPLC
Ac-PLG[hPhe][Orn]LEE-{Hexamethylenediamine-X1} (SMILES CC(=O)N1CCC[C@H]1C(=O)N[C@@H](CC(C)C)C(=O)NCC(=O)N[C@@H](CCc1ccccc1)C(=O)N[C@@H](CCCN)C(=O)N[C@@H](CC(C)C)C(=O)N[C@@H](CCC(=O)O)C(=O)N[C@@H](CCC(=O)O)C(=O)NCCCCCCNC(=O)c1ccc(N/N=C/c2ccccc2S(=O)(=O)O)nc1) | 99.2% purity by HPLC
PEPTIDE1{[ac].[Csa].P.L.G.[Hphe].Y.L.[Ambh].[HynCz]}$$$$V2.0 | 100% purity by HPLC

Same assay, conditions: conjugation step, corrected for the protected conjugate

Substance | conjugation yield
PEPTIDE1{[ac].[Csa].P.L.G.[Hphe].Y.L.[Ambh].[HynCz]}$$$$V2.0 | 64.5% corrected for the protected conjugate

Same assay, conditions: late stage modification step

Substance | step yield
15: Ac-NGlu-POG˜Hphe-L-Hynic | 66.7%
(2S)-N-[(1S)-1-(N-{(1S)-1-[N-(6-Aminohexanoylamino)carbamoyl]-3-methylbutyl}carbamoyl)-2-[4-(tert-butoxy)phenyl]ethyl]-2-(2-{(2S)-2-[((2S)-1-acetylpyrrolidin-2-yl)carbonylamino]-4-methylpentanoylamino}-acetylamino)hept-6-enamide | 63%
(2S)-N-{(1S)-1-[N-((1S)-1-{N-[6-(Acetylamino)hexanoylamino]carbamoyl}3-methylbutyl)carbamoyl]-2-(4-hydroxyphenyl)ethyl}-2-(2-{(2S)-2-[((2S)-1-acetylpyrrolidin-2-yl)carbonylamino]-4-methylpentanoylamino}acetylamino)hept-6-enamide | 94%
N-((2S)-2-{(2S)-2-[2-((2S)-2-[((2S)-1-Acetylpyrrolidin-2-yl)carbonylamino]-N-{4-[(tert-butoxy)carbonylamino]butyl}-4-methylpentanoylamino)acetylamino]-4-methylpentanoylamino}-4-methylpentanoylamino)-6-aminohexanamide Trifluoroacetic Acid Salt | 39%
PEPTIDE1{[ac].P.L.G.[Hphe].Y.L.[Ahxh].[HynCz]}$$$$V2.0 | 29%
PEPTIDE1{[ac].P.L.G.[Hphe].Y.L.[Ambh].[HynCz]}$$$$V2.0 | 15%
PEPTIDE1{[ac].P.L.G.[Hphe].[Orn].L.[Ambh].[HynCz]}$$$$V2.0 | 60.0%
PEPTIDE1{[ac].P.[Orn].G.[Hphe].L.[Ambh].[HynCz]}$$$$V2.0 | 71%
PEPTIDE1{[ac].[NGlu].P.L.G.[Hphe].Y.L.[Ambh].[HynCz]}$$$$V2.0 | 57%

Same assay, conditions: late stage modification step, HPLC

Substance | final HPLC purity
15: Ac-NGlu-POG˜Hphe-L-Hynic | 100% purity by HPLC
(2S)-N-[(1S)-1-(N-{(1S)-1-[N-(6-Aminohexanoylamino)carbamoyl]-3-methylbutyl}carbamoyl)-2-[4-(tert-butoxy)phenyl]ethyl]-2-(2-{(2S)-2-[((2S)-1-acetylpyrrolidin-2-yl)carbonylamino]-4-methylpentanoylamino}-acetylamino)hept-6-enamide | 100%
(2S)-N-{(1S)-1-[N-((1S)-1-{N-[6-(Acetylamino)hexanoylamino]carbamoyl}3-methylbutyl)carbamoyl]-2-(4-hydroxyphenyl)ethyl}-2-(2-{(2S)-2-[((2S)-1-acetylpyrrolidin-2-yl)carbonylamino]-4-methylpentanoylamino}acetylamino)hept-6-enamide | 100%
N-((2S)-2-{(2S)-2-[2-((2S)-2-[((2S)-1-Acetylpyrrolidin-2-yl)carbonylamino]-N-{4-[(tert-butoxy)carbonylamino]butyl}-4-methylpentanoylamino)acetylamino]-4-methylpentanoylamino}-4-methylpentanoylamino)-6-aminohexanamide Trifluoroacetic Acid Salt | 100%
PEPTIDE1{[ac].P.L.G.[Hphe].Y.L.[Ahxh].[HynCz]}$$$$V2.0 | HPLC purity, 100%
PEPTIDE1{[ac].P.L.G.[Hphe].Y.L.[Ambh].[HynCz]}$$$$V2.0 | HPLC purity 100%
PEPTIDE1{[ac].P.L.G.[Hphe].[Orn].L.[Ambh].[HynCz]}$$$$V2.0 | 100% purity by HPLC
PEPTIDE1{[ac].P.[Orn].G.[Hphe].L.[Ambh].[HynCz]}$$$$V2.0 | HPLC purity, 100%
PEPTIDE1{[ac].[NGlu].P.L.G.[Hphe].Y.L.[Ambh].[HynCz]}$$$$V2.0 | HPLC purity, 100%

Same assay, conditions: late stage modification step, HPLC, TFA salt

Substance | final HPLC purity
N-{(2S)-2-[(2S)-2-(2-{(2S)-2-[((2S)-1-Acetylpyrrolidin-2-yl)carbonylamino]-N-(4-aminobutyl)-4-methylpentanoylamino}acetylamino)-4-methylpentanoylamino]-4-methylpentanoylamino}-6-(acetylamino)hexanamide Trifluoroacetic Acid Salt | 100%

Same assay, conditions: late stage modification step, TFA salt

Substance | step yield
N-{(2S)-2-[(2S)-2-(2-{(2S)-2-[((2S)-1-Acetylpyrrolidin-2-yl)carbonylamino]-N-(4-aminobutyl)-4-methylpentanoylamino}acetylamino)-4-methylpentanoylamino]-4-methylpentanoylamino}-6-(acetylamino)hexanamide Trifluoroacetic Acid Salt | 83%

Same assay, conditions: whole synthesis

Substance | isolated yield
Ac-NGlu(O-t-Bu)-PO(Boc)G-Hphe-L-OH | 37.1%

Same assay, conditions: whole synthesis, HPLC

Substance | final HPLC purity | purity (crude or final not stated)
Ac-NGlu(O-t-Bu)-PO(Boc)G-Hphe-L-OH | 93.7% purity by HPLC | 
Ac-NGlu(Ot-Bu)-PLG-Hphe-Y(t-Bu)-L-ONH4 | HPLC purity 100% | 
Ac-NGlu(t-Bu)-PLG˜Hphe-YL-Ahxh-H |  | 100%
Ac-Oic-LG˜LL-Ahxh-H |  | 90%
Ac-P-Cha-G˜Hphe-Cit-L-Ahxh-H |  | 100%
Ac-P-Cha-G˜LL-Ahxh-H |  | 100%
Ac-P-Cit-G˜Hphe-Cha-A-Ahxh-H |  | 100%
Ac-P-Cit-G˜Hphe-LA-Ahxh-H |  | 90%
Ac-P-Cit-G˜Hphe-O(Boc)L-Ahxh-H |  | 90%
Ac-P-Cit-G˜S(OBn)-LA-Ahxh-H |  | 100%
Ac-P-NLeu-G˜LL-Ahxh-H |  | 98%
Ac-PL-NLys(Boc)-LL-dLeu-Ahxh-H |  | 97%
Ac-PL-NLys(Boc)˜Ahp-Y(t-Bu)L-Ahxh-H |  | 95%
Ac-PLG˜Ahp-O(Boc)L-Ahxh-H |  | 100%
Ac-PLG˜Ahp-Y(t-Bu)L-Ahxh-H |  | 100%
Ac-PLG˜Cit-LA-Ahxh-H |  | 95%
Ac-PLG˜L-Cha-Ahxh-H |  | 100%
Ac-PLG˜L-Pya-L-Ahxh-H |  | 100%
Ac-PLG˜Pabu-Cit-L-Ahxh-H |  | 100%
PEPTIDE1{[HynN].[Ahx].P.L.G.[Hphe].[Orn].L.E.E}$$$$V2.0 | HPLC purity 100% | 

Same assay, conditions: whole synthesis, overall

Substance | isolated yield
Ac-NGlu(Ot-Bu)-PLG-Hphe-Y(t-Bu)-L-ONH4 | overall yield 30%
PEPTIDE1{[HynN].[Ahx].P.L.G.[Hphe].[Orn].L.E.E}$$$$V2.0 | overall yield 7.5%
